Assay results taken from publication doi:10.1101/2022.07.25.501345.
No constants are given. Whether binding was seen depends on the method and setting. Binding seen in cells or lysates may run through a third protein. Some entries that bind do so weakly or less than the wild type. Blank lines part the entries; values can stand above or below the molecule they belong to.

By UniProt entry, the sequences of proteins in these tests, tags left out.
UniProt P09884: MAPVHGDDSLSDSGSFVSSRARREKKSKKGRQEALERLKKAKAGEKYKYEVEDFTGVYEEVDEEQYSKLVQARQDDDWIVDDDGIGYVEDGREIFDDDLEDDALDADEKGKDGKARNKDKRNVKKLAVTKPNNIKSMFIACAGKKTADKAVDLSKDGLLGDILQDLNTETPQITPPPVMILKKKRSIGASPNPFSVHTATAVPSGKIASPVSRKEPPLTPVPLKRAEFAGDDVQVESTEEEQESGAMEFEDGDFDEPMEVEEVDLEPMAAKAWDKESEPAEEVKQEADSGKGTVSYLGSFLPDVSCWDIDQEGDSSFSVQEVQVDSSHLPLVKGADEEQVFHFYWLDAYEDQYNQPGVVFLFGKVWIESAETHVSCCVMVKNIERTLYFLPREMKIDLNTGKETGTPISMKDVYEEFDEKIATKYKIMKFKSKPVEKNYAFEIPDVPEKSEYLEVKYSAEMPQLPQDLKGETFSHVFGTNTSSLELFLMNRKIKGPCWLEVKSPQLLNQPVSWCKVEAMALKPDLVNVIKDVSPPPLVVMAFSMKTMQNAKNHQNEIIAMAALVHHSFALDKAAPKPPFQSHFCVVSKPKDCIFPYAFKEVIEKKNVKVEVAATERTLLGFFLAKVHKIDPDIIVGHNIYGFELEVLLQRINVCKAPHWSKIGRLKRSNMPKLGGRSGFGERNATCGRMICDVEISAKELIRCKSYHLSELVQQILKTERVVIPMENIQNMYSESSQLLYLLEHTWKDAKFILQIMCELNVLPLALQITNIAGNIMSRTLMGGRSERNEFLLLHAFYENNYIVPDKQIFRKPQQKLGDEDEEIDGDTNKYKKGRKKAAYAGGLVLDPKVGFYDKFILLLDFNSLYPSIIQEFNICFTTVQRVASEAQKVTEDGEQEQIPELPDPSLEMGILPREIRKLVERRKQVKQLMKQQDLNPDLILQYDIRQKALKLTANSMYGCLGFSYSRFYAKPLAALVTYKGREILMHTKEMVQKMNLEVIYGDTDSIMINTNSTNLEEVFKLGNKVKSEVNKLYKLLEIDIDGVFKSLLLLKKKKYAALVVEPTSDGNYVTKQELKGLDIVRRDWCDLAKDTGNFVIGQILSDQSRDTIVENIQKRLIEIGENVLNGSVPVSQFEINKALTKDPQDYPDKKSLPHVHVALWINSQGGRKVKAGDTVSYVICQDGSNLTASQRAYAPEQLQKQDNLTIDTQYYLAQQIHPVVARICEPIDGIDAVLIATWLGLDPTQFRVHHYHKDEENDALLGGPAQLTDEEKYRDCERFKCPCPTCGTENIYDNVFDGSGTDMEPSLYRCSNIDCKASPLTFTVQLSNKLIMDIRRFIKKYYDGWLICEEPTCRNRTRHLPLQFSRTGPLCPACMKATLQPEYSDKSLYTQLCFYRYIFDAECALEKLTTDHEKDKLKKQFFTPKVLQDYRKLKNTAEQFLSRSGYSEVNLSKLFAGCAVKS
UniProt P15927: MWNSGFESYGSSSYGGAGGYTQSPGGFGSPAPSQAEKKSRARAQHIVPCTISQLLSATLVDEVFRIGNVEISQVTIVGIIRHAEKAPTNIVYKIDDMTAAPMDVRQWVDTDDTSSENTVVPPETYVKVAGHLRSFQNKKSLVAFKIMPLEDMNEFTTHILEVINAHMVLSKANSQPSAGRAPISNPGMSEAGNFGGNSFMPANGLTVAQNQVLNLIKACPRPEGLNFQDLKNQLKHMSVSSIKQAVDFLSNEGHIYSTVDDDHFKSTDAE

Columns and labels:
Assay in all cases: co-IP
[1] = target: T1, UFD1L (human (endogenous in HCT116)) (UniProt Q92890)
T1 sequence: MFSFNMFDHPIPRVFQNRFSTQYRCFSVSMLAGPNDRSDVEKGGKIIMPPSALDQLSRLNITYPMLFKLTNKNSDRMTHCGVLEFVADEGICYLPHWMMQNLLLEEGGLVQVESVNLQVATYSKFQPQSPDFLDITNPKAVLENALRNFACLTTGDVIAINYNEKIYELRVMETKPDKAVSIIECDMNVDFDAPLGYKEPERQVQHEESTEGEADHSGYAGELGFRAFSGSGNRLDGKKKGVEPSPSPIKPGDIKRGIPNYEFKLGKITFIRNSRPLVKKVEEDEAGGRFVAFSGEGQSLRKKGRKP

[2] = target: T2, PRIM2 (human (endogenous in HCT116)) (UniProt P49643)
T2 sequence: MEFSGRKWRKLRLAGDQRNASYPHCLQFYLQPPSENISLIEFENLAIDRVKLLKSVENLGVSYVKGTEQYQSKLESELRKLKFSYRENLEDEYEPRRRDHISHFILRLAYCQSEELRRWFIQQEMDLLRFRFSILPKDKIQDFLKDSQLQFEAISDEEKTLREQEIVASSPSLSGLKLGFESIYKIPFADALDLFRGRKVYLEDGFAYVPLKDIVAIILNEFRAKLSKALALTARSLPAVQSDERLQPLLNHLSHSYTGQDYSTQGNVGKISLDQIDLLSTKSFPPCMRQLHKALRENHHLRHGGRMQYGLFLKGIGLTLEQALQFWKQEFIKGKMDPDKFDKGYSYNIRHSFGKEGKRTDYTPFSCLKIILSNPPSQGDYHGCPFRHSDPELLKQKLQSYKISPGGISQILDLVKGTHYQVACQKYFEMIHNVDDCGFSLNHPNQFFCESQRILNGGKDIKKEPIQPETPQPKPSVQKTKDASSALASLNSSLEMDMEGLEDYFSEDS

[3] = target: VCP/p97 (human (endogenous in HCT116)) (UniProt P55072)

- binding [1]: binds
Molecule: POLA1 (from UniProt P09884 1-1462)

- binding [2]: no binding
- binding [3]: no binding
Molecule: RPA2 (from UniProt P15927 1-270)

- binding [1]: binds
B1: PRIM2 (protein, UniProt P49643 1-509)
chain: T2 sequence
